# PubChem BioAssay AID1053208, Peter MacCallum Cancer Centre – 2014
# Assay: 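Synthetic lethal interactions between gene loss and doxorubicin in osteosarcoma cells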 (primary screen)
# Cells: mouse osteosarcoma cells, early-passage culture from an engineered mouse model of fibroblastic bone tumour
# Knock-down reagent: siRNA pool against mouse genes, 40 nM
# Time to read-out: about 120 h (48 h before drug, then 72 h with drug)
# Treatment: doxorubicin 100 nM for 72 h, roughly 30-40% inhibitory dose
# Detection: 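Luminescent ATP signal taken as viability with or without 100 nM doxorubicin for 72 h; mean of two wells set against non-targeting siRNA and turned into robust z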
# Reading the numbers: viability z-score with doxorubicin: higher = more viable cells under doxorubicin; viability z-score without drug: higher = more viable cells with knock-down alone
# Hit rule: 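Called active if knock-down leaves viability unchanged without drug (z within -2 to 2) but lowers it with doxorubicin (z at or under -2)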
# Here is one part, drawn at random, of about 17,000 reagents. In the full data, 788 (4.7%) were called active. 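Calls rest on z-score classes alone; an extra cut-off of viability at most 70% of control was not applied to them.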 Entries without a mark were called inactive. Further read-outs or replicates are left out here.
The opening 2 records as a preview:
target,combined z-score class,viability z-score with doxorubicin,viability z-score without drug
BC004004 (cDNA sequence BC004004),no change with or without drug,0.11,0.51
Ticam2 (TIR domain containing adaptor molecule 2),no change with or without drug,1.12,1.18

Main list, from the first entry:
target,combined z-score class,viability z-score with doxorubicin,viability z-score without drug
BC004004 (cDNA sequence BC004004),no change with or without drug,0.11,0.51
Ticam2 (TIR domain containing adaptor molecule 2),no change with or without drug,1.12,1.18
Or10j3b (olfactory receptor family 10 subfamily J member 3B),no change with or without drug,-0.9,0.17
"Xpnpep3 (X-prolyl aminopeptidase 3, mitochondrial)",no change with or without drug,0.34,0.34
Rph3al (rabphilin 3A-like (without C2 domains)),low cell count with doxorubicin only (active),-3.82,0.34
"H2-M1 (histocompatibility 2, M region locus 1)",no change with or without drug,0.11,0.17
Cav2 (caveolin 2),no change with or without drug,-0.45,-0.17
Shq1 (SHQ1 homolog (S. cerevisiae)),no change with or without drug,1.35,-0.17
Popdc1 (popeye domain cAMP effector 1),no change with or without drug,-0.22,1.35
Spata2 (spermatogenesis associated 2),no change with or without drug,-0.45,1.01
"Nr2f1 (nuclear receptor subfamily 2, group F, member 1)",high cell count without drug only,1.12,2.02
Plppr4 (phospholipid phosphatase related 4),no change with or without drug,0.9,-0.51
Cldn12 (claudin 12),no change with or without drug,1.8,1.18
Pard6b (par-6 family cell polarity regulator beta),no change with or without drug,0.9,1.52
Sprr2g (small proline-rich protein 2G),high cell count with doxorubicin only,3.04,1.52
Or12e10 (olfactory receptor family 12 subfamily E member 10),no change with or without drug,0.9,-0.17
Gm9946 (predicted gene 9946),no change with or without drug,0.9,1.52
Nsf (N-ethylmaleimide sensitive fusion protein),no change with or without drug,1.12,1.69
Itgav (integrin alpha V),low cell count without drug only,-1.8,-2.87
Slc4a4,no change with or without drug,-0.45,-0.34
